Laboratory results taken from paper PMC8051072.

Protein sequences, listed by entry. Tags and fused reporters are not part of them.
UniProt P35222: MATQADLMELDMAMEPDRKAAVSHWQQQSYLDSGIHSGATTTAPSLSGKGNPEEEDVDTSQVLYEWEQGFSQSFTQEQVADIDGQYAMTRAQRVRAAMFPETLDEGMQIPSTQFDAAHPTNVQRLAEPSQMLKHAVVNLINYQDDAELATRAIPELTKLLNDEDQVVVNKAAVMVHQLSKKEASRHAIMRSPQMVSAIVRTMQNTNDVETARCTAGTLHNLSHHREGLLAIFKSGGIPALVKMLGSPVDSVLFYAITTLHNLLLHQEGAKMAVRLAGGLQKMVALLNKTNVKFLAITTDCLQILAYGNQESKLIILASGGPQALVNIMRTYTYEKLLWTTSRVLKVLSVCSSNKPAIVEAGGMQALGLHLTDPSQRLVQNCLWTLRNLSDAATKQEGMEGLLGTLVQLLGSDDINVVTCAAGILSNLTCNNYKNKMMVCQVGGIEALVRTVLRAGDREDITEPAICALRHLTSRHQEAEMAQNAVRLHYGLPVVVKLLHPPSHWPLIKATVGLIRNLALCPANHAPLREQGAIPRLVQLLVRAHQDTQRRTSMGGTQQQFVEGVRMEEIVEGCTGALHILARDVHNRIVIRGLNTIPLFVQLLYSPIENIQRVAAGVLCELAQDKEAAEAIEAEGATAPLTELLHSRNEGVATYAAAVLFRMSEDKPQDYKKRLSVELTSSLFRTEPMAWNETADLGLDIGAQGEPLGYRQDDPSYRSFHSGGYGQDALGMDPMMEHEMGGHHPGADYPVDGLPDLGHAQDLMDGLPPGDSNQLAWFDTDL

Biological target: T1, Flag-Sec62 (UniProt Q99442)
T1 sequence: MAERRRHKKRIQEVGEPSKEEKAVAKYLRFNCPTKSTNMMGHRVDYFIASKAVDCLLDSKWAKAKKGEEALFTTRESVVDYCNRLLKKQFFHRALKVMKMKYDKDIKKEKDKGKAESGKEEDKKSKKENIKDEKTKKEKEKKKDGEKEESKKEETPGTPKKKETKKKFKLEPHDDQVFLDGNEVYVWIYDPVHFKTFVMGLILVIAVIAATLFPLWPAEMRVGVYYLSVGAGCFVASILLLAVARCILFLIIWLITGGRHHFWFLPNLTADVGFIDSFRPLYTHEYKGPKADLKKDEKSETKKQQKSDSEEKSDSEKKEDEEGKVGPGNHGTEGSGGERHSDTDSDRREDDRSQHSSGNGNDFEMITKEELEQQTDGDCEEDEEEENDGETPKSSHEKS
Test: affinity purification with mass spectrometry; DLD1 cells transfected with Flag-Sec62; whole cell extracts immunoprecipitated with anti-Flag antibody affinity resin; SDS-PAGE, silver staining, mass spectrometry

**Q.** Which binding does the source give for “β-catenin (endogenous) (from UniProt P35222 1-781)” here?
**A.** binds

No constants are given. Whether binding was seen depends on the method and setting. Binding seen in cells or lysates may run through a third protein. Here binding means that the protein was enriched with, or labelled near, the bait; the list need not be complete. Tags and fused reporters may be left off the sequences shown.
